Results are given in words; binding and its absence hold for the method and conditions named. Binding seen in cells or lysates may run through a third protein. Some results given as binding are weak or reduced against the parent protein; the word gives no strength.
Target: FOXP3 (human (endogenous in colorectal cancer sphere cells)) (UniProt Q9BZS1)
Test: co-IP; endogenous proteins in lysate of sphere cells; IP with anti-FOXP3 (Abcam) or, in the reverse direction, anti-p65 (Cell Signaling) on Dynabeads Protein G, 2 hours at 4°C, then western blot

By UniProt entry, the sequences of proteins in these tests, tags left out. Residues count along the entry.
UniProt Q9BZS1, residues 1-417: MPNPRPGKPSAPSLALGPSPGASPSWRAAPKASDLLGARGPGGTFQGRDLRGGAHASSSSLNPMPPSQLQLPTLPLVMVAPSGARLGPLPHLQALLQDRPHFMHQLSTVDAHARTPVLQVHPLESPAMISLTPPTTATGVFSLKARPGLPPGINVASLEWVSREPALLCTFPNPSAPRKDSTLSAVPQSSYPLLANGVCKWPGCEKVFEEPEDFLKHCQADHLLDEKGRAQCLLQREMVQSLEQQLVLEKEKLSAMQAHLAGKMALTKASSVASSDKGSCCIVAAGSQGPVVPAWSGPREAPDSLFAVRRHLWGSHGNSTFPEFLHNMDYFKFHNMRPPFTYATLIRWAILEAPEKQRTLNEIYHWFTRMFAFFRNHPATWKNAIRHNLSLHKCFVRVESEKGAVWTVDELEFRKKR
UniProt Q04206: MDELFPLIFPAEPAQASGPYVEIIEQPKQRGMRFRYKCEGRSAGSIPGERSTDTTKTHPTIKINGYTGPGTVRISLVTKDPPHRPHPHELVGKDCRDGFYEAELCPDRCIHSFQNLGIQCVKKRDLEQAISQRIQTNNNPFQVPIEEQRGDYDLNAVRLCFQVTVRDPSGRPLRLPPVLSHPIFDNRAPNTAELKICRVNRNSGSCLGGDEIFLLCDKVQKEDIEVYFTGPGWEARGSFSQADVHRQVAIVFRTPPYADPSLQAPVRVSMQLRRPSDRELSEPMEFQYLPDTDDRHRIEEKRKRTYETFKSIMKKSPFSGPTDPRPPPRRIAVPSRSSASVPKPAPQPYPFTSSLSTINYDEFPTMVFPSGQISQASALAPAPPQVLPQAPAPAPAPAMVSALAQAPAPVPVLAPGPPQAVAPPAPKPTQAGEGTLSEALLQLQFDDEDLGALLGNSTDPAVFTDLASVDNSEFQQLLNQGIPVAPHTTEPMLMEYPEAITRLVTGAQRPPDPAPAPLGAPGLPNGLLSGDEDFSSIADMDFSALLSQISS

binding: binds
Substance: p65 subunit of NFκB (from UniProt Q04206 1-551)

From PMC5546511
